Measured values taken from the supplement of paper PMC8728848.
This is one part of the list.

What was measured:
Experiment in all cases: glycan array binding signal (z-score within array); higher = stronger binding
Conditions in all cases: glycan notation: IUPAC condensed, linker removed
Glc(b1-4)Glc = target: Glc(b1-4)Glc
Summary of the method: (§1)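 Glycan array binding is given as a within-array Z-score, which can be read as non-binding when negative. The arrays, 3228 of them, came from the Consortium for Functional Glycomics database and were retained only where the protein sequence was available. Z-scores were averaged across arrays of the same protein sequence at different concentrations or buffers and across linkers.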

Glc(b1-6)Glc = target: Glc(b1-6)Glc
Summary of the method: as §1

GlcA(b1-3)Gal = target: GlcA(b1-3)Gal
Summary of the method: as §1

GlcA(b1-3)GlcNAc = target: GlcA(b1-3)GlcNAc
Summary of the method: as §1

GlcA(b1-6)Gal = target: GlcA(b1-6)Gal
Summary of the method: as §1

[1] = target: GlcA3S(b1-3)Gal(b1-4)GlcNAc(b1-2)Man
Summary of the method: as §1

[2] = target: GlcA3S(b1-3)Gal(b1-4)GlcNAc(b1-3)Gal(b1-4)Glc
Summary of the method: as §1

[3] = target: GlcNAc(a1-3)Gal(b1-4)GlcNAc
Summary of the method: as §1

[4] = target: GlcNAc(a1-4)Gal(b1-3)GlcNAc
Summary of the method: as §1

[5] = target: GlcNAc(a1-4)Gal(b1-4)GalNAc
Summary of the method: as §1

[6] = target: GlcNAc(a1-4)Gal(b1-4)GlcNAc
Summary of the method: as §1

[7] = target: GlcNAc(a1-4)Gal(b1-4)GlcNAc(b1-3)Gal(b1-4)Glc
Summary of the method: as §1

[8] = target: GlcNAc(a1-4)Gal(b1-4)GlcNAc(b1-3)Gal(b1-4)GlcNAc
Summary of the method: as §1

[9] = target: GlcNAc(a1-4)Gal(b1-4)GlcNAc(b1-3)Gal(b1-4)GlcNAc(b1-3)Gal(b1-4)GlcNAc
Summary of the method: as §1

[10] = target: GlcNAc(a1-4)Gal(b1-4)GlcNAc(b1-3)Gal(b1-4)[Fuc(a1-3)]GlcNAc(b1-3)Gal(b1-4)[Fuc(a1-3)]GlcNAc
Summary of the method: as §1

[11] = target: GlcNAc(a1-6)Gal(b1-4)GlcNAc
Summary of the method: as §1

[12] = target: GlcNAc(b1-2)Gal(b1-3)GalNAc
Summary of the method: as §1

[13] = target: GlcNAc(b1-2)Man(a1-3)[GlcNAc(b1-2)Man(a1-6)]Man(b1-4)GlcNAc(b1-4)GlcNAc
Summary of the method: as §1

[14] = target: GlcNAc(b1-2)Man(a1-3)[GlcNAc(b1-2)Man(a1-6)]Man(b1-4)GlcNAc(b1-4)[Fuc(a1-6)]GlcNAc
Summary of the method: as §1

[15] = target: GlcNAc(b1-2)Man(a1-3)[GlcNAc(b1-4)][GlcNAc(b1-2)Man(a1-6)]Man(b1-4)GlcNAc(b1-4)GlcNAc
Summary of the method: as §1

[16] = target: GlcNAc(b1-2)Man(a1-3)[GlcNAc(b1-4)][GlcNAc(b1-2)Man(a1-6)]Man(b1-4)GlcNAc(b1-4)[Fuc(a1-6)]GlcNAc
Summary of the method: as §1

[17] = target: GlcNAc(b1-2)[GlcNAc(b1-4)]Man(a1-3)[GlcNAc(b1-2)Man(a1-6)]Man(b1-4)GlcNAc(b1-4)GlcNAc
Summary of the method: as §1

[18] = target: GlcNAc(b1-2)[GlcNAc(b1-4)]Man(a1-3)[GlcNAc(b1-4)][GlcNAc(b1-2)Man(a1-6)]Man(b1-4)GlcNAc(b1-4)GlcNAc
Summary of the method: as §1

[19] = target: GlcNAc(b1-2)[GlcNAc(b1-4)]Man(a1-3)[GlcNAc(b1-4)][GlcNAc(b1-2)[GlcNAc(b1-6)]Man(a1-6)]Man(b1-4)GlcNAc(b1-4)GlcNAc
Summary of the method: as §1

[20] = target: GlcNAc(b1-2)[GlcNAc(b1-4)]Man(a1-3)[GlcNAc(b1-4)][GlcNAc(b1-2)[GlcNAc(b1-6)]Man(a1-6)]Man(b1-4)GlcNAc(b1-4)[Fuc(a1-6)]GlcNAc
Summary of the method: as §1

[21] = target: GlcNAc(b1-2)[GlcNAc(b1-6)]Man(a1-6)[GlcNAc(b1-2)Man(a1-3)]Man(b1-4)GlcNAc(b1-4)GlcNAc
Summary of the method: as §1

[22] = target: GlcNAc(b1-2)[GlcNAc(b1-6)]Man(a1-6)[GlcNAc(b1-2)Man(a1-3)]Man(b1-4)GlcNAc(b1-4)[Fuc(a1-6)]GlcNAc
Summary of the method: as §1

[23] = target: GlcNAc(b1-2)[GlcNAc(b1-6)]Man(a1-6)[GlcNAc(b1-4)][GlcNAc(b1-2)Man(a1-3)]Man(b1-4)GlcNAc(b1-4)GlcNAc
Summary of the method: as §1

GlcNAc(b1-3)Fuc = target: GlcNAc(b1-3)Fuc
Summary of the method: as §1

GlcNAc(b1-3)Gal = target: GlcNAc(b1-3)Gal
Summary of the method: as §1

[24] = target: GlcNAc(b1-3)Gal(b1-3)GalNAc
Summary of the method: as §1

GlcNAc(b1-3)Gal(b1-4)Glc = target: GlcNAc(b1-3)Gal(b1-4)Glc
Summary of the method: as §1

[25] = target: GlcNAc(b1-3)Gal(b1-4)GlcNAc
Summary of the method: as §1

[26] = target: GlcNAc(b1-3)Gal(b1-4)GlcNAc(b1-2)Man(a1-3)[GlcNAc(b1-3)Gal(b1-4)GlcNAc(b1-2)Man(a1-6)]Man(b1-4)GlcNAc(b1-4)GlcNAc
Summary of the method: as §1

[27] = target: GlcNAc(b1-3)Gal(b1-4)GlcNAc(b1-2)Man(a1-3)[GlcNAc(b1-3)Gal(b1-4)GlcNAc(b1-2)Man(a1-6)]Man(b1-4)GlcNAc(b1-4)[Fuc(a1-6)]GlcNAc
Summary of the method: as §1

[28] = target: GlcNAc(b1-3)Gal(b1-4)GlcNAc(b1-2)[GlcNAc(b1-3)Gal(b1-4)GlcNAc(b1-6)]Man(a1-6)[GlcNAc(b1-3)Gal(b1-4)GlcNAc(b1-2)Man(a1-3)]Man(b1-4)GlcNAc(b1-4)GlcNAc
Summary of the method: as §1

[29] = target: GlcNAc(b1-3)Gal(b1-4)GlcNAc(b1-3)Gal(b1-4)GlcNAc
Summary of the method: as §1

B1: HA-00510 (Pseudomonas aeruginosa), Q02V39_PSEAB (protein)
chain: GVPIVNIATPNGAGLSNNHFRDYNVGANGLILNNATGKTQGTQLGGIILGNPNLKGQAAQVILNQVTGGNRSTLAGYTEVAGQSARVIVANPHGITCQGCGFINTPRATLTTGKPIMDGQRLERFQVDGGDIVVEGAELNVGNLEQFDLITRSAKLNAKLYAKNLNIVTGRNDVQADSLQATPRAADGSEKPQLAIDSSALGGMYAGAIRLVGTEQGVGVKLAGDMAASGGDIRIDASGKLSLAQASSQGDLKIAAQAVELNGKTYAGGSAEIRSAEELVNRQS
With B1 the “glycan array binding signal (z-score)” value (Glc(b1-4)Glc) was -0.009, the “glycan array binding signal (z-score)” value (Glc(b1-6)Glc) was -1.39 and the “glycan array binding signal (z-score)” value (GlcA(b1-3)Gal) was 0.104. The “glycan array binding signal (z-score)” value (GlcA(b1-3)GlcNAc) was 0.688, the “glycan array binding signal (z-score)” value (GlcA(b1-6)Gal) was 0.203 and the “glycan array binding signal (z-score)” value [1] was 0.371. The “glycan array binding signal (z-score)” value [2] was -0.72, the “glycan array binding signal (z-score)” value [3] was -0.693 and the “glycan array binding signal (z-score)” value [4] was 0.762. The “glycan array binding signal (z-score)” value [5] was -0.228, the “glycan array binding signal (z-score)” value [6] was -0.006 and the “glycan array binding signal (z-score)” value [7] was -0.558. The “glycan array binding signal (z-score)” value [8] was -0.003, the “glycan array binding signal (z-score)” value [9] was 0.791 and the “glycan array binding signal (z-score)” value [10] was 0.682. For the same binder, the “glycan array binding signal (z-score)” value [11] was -0.411, the “glycan array binding signal (z-score)” value [12] was -0.049 and the “glycan array binding signal (z-score)” value [13] was -0.458. The “glycan array binding signal (z-score)” value [14] was 0.819, the “glycan array binding signal (z-score)” value [15] was 0.016 and the “glycan array binding signal (z-score)” value [16] was -0.954. The “glycan array binding signal (z-score)” value [17] was 0.825, the “glycan array binding signal (z-score)” value [18] was -0.97 and the “glycan array binding signal (z-score)” value [19] was -0.607. The “glycan array binding signal (z-score)” value [20] was -0.463, the “glycan array binding signal (z-score)” value [21] was -0.499 and the “glycan array binding signal (z-score)” value [22] was -0.51. The “glycan array binding signal (z-score)” value [23] was -0.516, the “glycan array binding signal (z-score)” value (GlcNAc(b1-3)Fuc) was -1.14 and the “glycan array binding signal (z-score)” value (GlcNAc(b1-3)Gal) was -1.14. For the same binder, the “glycan array binding signal (z-score)” value [24] was -0.156, the “glycan array binding signal (z-score)” value (GlcNAc(b1-3)Gal(b1-4)Glc) was -0.779 and the “glycan array binding signal (z-score)” value [25] was -0.233. For the same binder, the “glycan array binding signal (z-score)” value [26] was 0.009, the “glycan array binding signal (z-score)” value [27] was 0.168 and the “glycan array binding signal (z-score)” value [28] was 0.061. For the same binder, the “glycan array binding signal (z-score)” value [29] was 0.134.
